Assay results reported in PMC3483219.

Tests used:
GST-rab5 = experiment: pull-down; GST-rab4 and GST-rab5 on GSH beads, loaded with GMP-PNP or GDP, incubated with rescued mocha cell lysate; blots for δ-adaptin and rabaptin-5α; only the target purified
GST-rab4 = experiment: as above

B1: δ-adaptin (rescued mocha fibroblasts) (protein, UniProt O14617 1-1153)
chain: MALKMVKGSIDRMFDKNLQDLVRGIRNHKEDEAKYISQCIDEIKQELKQDNIAVKANAVCKLTYLQMLGYDISWAAFNIIEVMSASKFTFKRIGYLAASQSFHEGTDVIMLTTNQIRKDLSSPSQYDTGVALTGLSCFVTPDLARDLANDIMTLMSHTKPYIRKKAVLIMYKVFLKYPESLRPAFPRLKEKLEDPDPGVQSAAVNVICELARRNPKNYLSLAPLFFKLMTSSTNNWVLIKIIKLFGALTPLEPRLGKKLIEPLTNLIHSTSAMSLLYECVNTVIAVLISLSSGMPNHSASIQLCVQKLRILIEDSDQNLKYLGLLAMSKILKTHPKSVQSHKDLILQCLDDKDESIRLRALDLLYGMVSKKNLMEIVKKLMTHVDKAEGTTYRDELLTKIIDICSQSNYQYITNFEWYISILVELTRLEGTRHGHLIAAQMLDVAIRVKAIRKFAVSQMSALLDSAHLLASSTQRNGICEVLYAAAWICGEFSEHLQEPHHTLEAMLRPRVTTLPGHIQAVYVQNVVKLYASILQQKEQAGEAEGAQAVTQLMVDRLPQFVQSADLEVQERASCILQLVKHIQKLQAKDVPVAEEVSALFAGELNPVAPKAQKKVPVPEGLDLDAWINEPLSDSESEDERPRAVFHEEEQRRPKHRPSEADEEELARRREARKQEQANNPFYIKSSPSPQKRYQDTPGVEHIPVVQIDLSVPLKVPGLPMSDQYVKLEEERRHRQKLEKDKRRKKRKEKEKKGKRRHSSLPTESDEDIAPAQQVDIVTEEMPENALPSDEDDKDPNDPYRALDIDLDKPLADSEKLPIQKHRNTETSKSPEKDVPMVEKKSKKPKKKEKKHKEKERDKEKKKEKEKKKSPKPKKKKHRKEKEERTKGKKKSKKQPPGSEEAAGEPVQNGAPEEEQLPPESSYSLLAENSYVKMTCDIRGSLQEDSQVTVAIVLENRSSSILKGMELSVLDSLNARMARPQGSSVHDGVPVPFQLPPGVSNEAQYVFTIQSIVMAQKLKGTLSFIAKNDEGATHEKLDFRLHFSCSSYLITTPCYSDAFAKLLESGDLSMSSIKVDGIRMSFQNLLAKICFHHHFSVVERVDSCASMYSRSIQGHHVCLLVKKGENSVSVDGKCSDSTLLSNLLEEMKATLAKC
binding (GST-rab5): no binding | binding (GST-rab4): no binding

Results are given in words; binding and its absence hold for the method and conditions named. Binding seen in cells or lysates may run through a third protein.
